No constants are given. Whether binding was seen depends on the method and setting. In cells and extracts the contact can be indirect. A yes stands for co-enrichment or nearness to the bait. Other partners may have been found.
B1: Cdk12 (enzyme, UniProt Q9VP22 1-1157)
chain: MHASSAAATALVEYSDVSSEDFSDQEAGDLDADAGKGAGNIKKPKPAPDNQFSKGRLDAKPDKEGYDNYRSRRAEDSSDPVAAGSRQTSSSEATNPREEPSQASNTSKDELWGREIYMSSDSIDTDELEAEMKRQKRKKQKKEKHKHKSKKKSKKRKKKRAKSYSSIDSMSDNDINALLDRRYTPPTAPSKSNERTVSAAPSSFTPHNLKESSSPATPPPVRRPNTNSNYYGESSLETANSALGSNLQVTVTNKQSISNRLRSPPPSSRSSGNGPRFGNSPRTPPPSHYSSSGGGGVGSGSVVRDSRSSRYVNSPHKEDVSAHHRSSHDHGYQGRYSGAGSSSHDTRKVKRLSPELDRYNHQPSTPPHKRRKFSDGREVGLGNFEHSRHHSGKYERYSRDRYSRRSSRSPSVQHSRSRQSPSGGLSSGSNAFRHGGSHKHKYGTTVSSTPSHTTRTSKRASGTGTSGDRYSRSPRTSSRYMESSPPSPVGASGSHHYHHRRSPRMRQRTRGDSRRRSPSSASSESSASRSRSPTSRDLKHKREEYIKKISETSLFAELVKDRHKRQKALKEIIERQEENSNSNSNGALTINDNSSSVDGNTPNAADGRSAPGSGTPAAASTTSNGLQALGSKPDLDLNNIPMPNKQNDSVVSNPASNADVPDSVAQLKQPLLVPPFSASKNNIKPKSLTSLPLPPGMNVLDLAGARSPSPGQKKESDEKNVTSSGSANKSVLNLPMPPVIPGSEELSGDDDVIDSPEDFDAPAVGTVHGHGGGPGTTRQRPVILNRRDSRNNVRDWGERCVDVFEMIAQIGEGTYGQVYKARDHHTNDMVALKKVRLEHEKEGFPITAVREIKILRQLNHRNIVNLHEIVTDKQDAVEFRKDKGSFYLVFEYMDHDLMGLLESGMVDFNEENNASIMKQLLDGLNYCHKKNFLHRDIKCSNILMNNRGKVKLADFGLARLYNADDRERPYTNKVITLWYRPPELLLGEERYGPSIDVWSCGCILGELFVKRPLFQANAEMAQLETISKICGSPVPAVWPNVIKLPLFHTLKQKKTHRRRLREDFEFMPAPALDLLDKMLDLDPDKRITAEDALRSPWLRKINPDEMPTPQLPTWQDCHELWSKKRRRQMREQQESLPPTVIASTKYQQHGATMVGDA
B2: Pitslre/Cdk11 (enzyme, UniProt Q9VPC0 1-952)
chain: MVNSSGSEDGQLRSPNDVHYHSRGEEDEHEGDADALYIQPPQASRESGSGPRREKKKHSRERRRHKERDDVGGAALALERDHRYDYRSREEHYHHHQRERSSNAAAAYAKHHLGHAYHYPQPPQQQQQPLPPAPSYAAHHYHHHQHLSGARAAPREYHSYPSGYHSGSRHGDYPMEEPTRRSSKYAESKDAESLEQDLRSRLLKKRHNYVKDYETEENYEHRVERSDRREGGRKERERTVRSTHKQNRHDRVIELLDSPEQEHHHQHQHKSHRSKWREEVEVIRRKVPEDLELLARREKLLAAERESRQRKQTAREELEARRELLRERNEHSDALSPTTVAASVTAGLNIHVKRKSKPDNYEKEIKLKKRREDDIEVIRDDDDEESEESDSNEEVPEQDSEGSATESGSEDSYASKKKSKIKSKSQLEDDDEDLPLPDSPLSVGELYKSPKQRQRSRSVSSKSSSQSSRSSRSRSRSRSQSSLEDEVDRQDVGADASPSSSTRSEERGMTQEQPEEKPEEKLKEKQKSLEEQIPCDDKGIPLPNYYPGVQGCRSVEEFQCLNRIEEGTYGVVYRAKDKRTNEIVALKRLKMEKEKEGFPITSLREINTLLKGQHPNIVTVREIVVGSNMDKIFIVMDYVEHDLKSLMETMKNRKQSFFPGEVKCLTQQLLRAVAHLHDNWILHRDLKTSNLLLSHKGILKVGDFGLAREYGSPIKKYTSLVVTLWYRAPELLLCSPVYSTPIDVWSVGCIFAEFLQMLPLFPGKSEIDELNRIFKELGTPNEKIWPGYTELPAVKNMLSQNSQFTEYPVSQLRKHFQEKTSEMGLSLLQGLLTYDPKQRLSADAALKHGFFKELPLPIDPSMFPTWPAKSELGARKAQASSPKPPSGGSQFKQLGRDEPIIVGPGNKLSSGIITGNKKSHGAGGSSASTGFVLNAGITQRQLAMGPGFSLKF
B3: Acinus (protein, UniProt Q9VJ12 1-739)
chain: MRRRSERKKSSSPAPVPVAVARRSRRSRKVSENEKTEVETPVVAQNNEAECPKVPPASQEINEARASSEERAGSGASPVRRSRGSRTTPRKRTESKGGDKKVDTIPEEEPENGKDVEKDAVEEEKTVAPPAANESESEDRAKTEDQQAQDDESCAEPAVVKDDDVEKEDLKPQQEVPTSTDDDTKQSEPEQEVKVPSPSSKDEEHLKTTSDVLDIQTEEVDERDEEASAPAERRETKKRHKEQIKEQQPAEEEEHKENHKQIDENPEQIHDEPADLSNDKHDPCLNSSATNTTGAPVLQQQRSVRKRKWLTNKKSSDRTPPVLAISTDSLKNIIADVVQPVPLSDVQLESSSEEEGLVTSDRDSERSASPAPPSEASKDRDNKGNTANTCDTTAEASADNEGAGAAPPAAADTVSAQVSLSKATVSTAAPHIVRDPSPARNRASHVLYITNLVRPFTVLQLKGLLARTGKIVEEDGFWIDRIKSKCYVAYSTEDEAIETRHALHGVRWPVSNPKCLNVDFGSRTDMDRAILSTKDEAPRYGQENTRDNQQSGNAWSRLEPSDKKPARPVREWDVGKKEPSDHDKHSNDRRRDSKDRLDSRSRDAERAGQERKRSRDREGRGRDRERERLDRNAHARSRSGSPASKTKKENEPPIRLLDDLFRKTKGTPCIYWLPLTPEAIAEKEAFRQKRIEEHKLRIKEREERQKEREKDRDRQRETRRNRSNERRRSRSRERERRRY
B4: Drosophila Wdr82 (protein, UniProt Q9VLN1 1-317)
chain: MKIKLIDSVVRSFKVAKIFRENTDKINAIDFAPNGEHLISCSEDDQIVIYDCEKGTQSRTVNSKKYGVDLIHFTHANNTAIHSSTKVDDTIRYLSLHDNKYLRYFPGHTKKVISLCISPVEDTFLSGSLDKTLRLWDLRSPNCQGLMHLSGRPIAAYDPEGLIFAAGVNSESIKLYDLRSFDKGPFVTFKLNQEKECDWTGLKFSRDGKTILISTNGSVIRLVDAFHGTPLQTFTGYPNNKGIPIEASFSPDSQFIFSGSTDGRVHIWNADTGNKVSVLNGDHPGPVQCVQFNPKYMMLASACTNMAFWLPTSEEGL

Legend:
[1] = molecular target: GFP-PNUTS^WT-HA (PP1 Nuclear Targeting Subunit, wild type) (Drosophila); assay: affinity purification with mass spectrometry
[2] = molecular target: GFP-PNUTS^W726A-HA (non-PP1 binding mutant) (Drosophila); assay: affinity purification with mass spectrometry

Row | binding [1] | binding [2] | Binder
1 | binds | – | B1
2 | binds | binds | B2
3 | binds | binds | B3
4 | binds | – | B4
